Experimental data as given in patent US10251942B2, “Immunity-inducing agent” (TORAY INDUSTRIES, INC., priority 2009, dated 2019).

Test system: antibodies specifically reactive with the protein in serum
Assay: ELISA of serum antibody titer against recombinant PDS5A protein for cancer diagnosis
Type: binding, dog
Details: 112 patient dogs, 30 healthy dogs; cut-off not less than twice the average value in healthy dogs; 94 samples
Protocol: Blood was collected from 112 patient dogs wherein malignant tumor was found and 30 healthy dogs, and sera were separated therefrom. Using the canine PDS5A protein (SEQ ID NO:2) prepared in the above-described (2), the titer of antibodies specifically reactive with the protein in each serum was measured by the ELISA method. Immobilization of the prepared protein was carried out by placing 100 μL/well of the recombinant protein solution diluted to 5 μg/mL with phosphate-buffered saline in a 96-well Immobilizer Amino plate (manufactured by Nunc), followed by leaving the plate to stand at 4° C. overnight. Blocking was carried out by adding 100 μL of 50 mM sodium bicarbonate buffer (pH 8.4) supplemented with 3% BSA (bovine serum albumin, manufactured by Sigma-Aldrich Co.) (hereinafter referred to as the blocking solution) to each well and shaking the plate at room temperature for 1 hour. The sera were 1000-fold diluted with the blocking solution and added to the wells in an amount of 100 μL/well, and the plate was shaken at room temperature for 3 hours to allow the reaction to proceed. […] Thereafter, 100 μl/well of 0.5 M sulfuric acid solution (manufactured by Sigma-Aldrich Japan) was added to the wells to stop the reaction, and the absorbance at 450 nm was measured using a microplate reader. […]

B1: canine recombinant PDS5A protein: full-length canine PDS5A (SEQ ID NO:2) expressed in E. coli; given mixed with Freund's incomplete adjuvant (protein, listed as Canis familiaris)
chain: MDFTAQPKPATALCGVVSADGKIAYPPGVKEITDKITTDEMIKRLKMVVKTFMDMDQDSEDEKQQYLPLALHLASEFFLRNPNKDVRLLVACCLADIFRIYAPEAPYTSHDKLKDIFLFITRQLKGLEDTKSPQFNRYFYLLENLAWVKSYNICFELEDCNEIFIQLFRTLFSVINNSHNKKVQMHMLDLMSSIIMEGDGVTQELLDSILINLIPAHKNLNKQSFDLAKVLLKRTVQTIEACIANFFNQVLVLGRSSVSDLSEHVFDLIQELFAIDPHLLLSVMPQLEFKLKSNDGEERLAVVRLLAKLFGSKDSDLATQNRPLWQCFLGRFNDIHVPVRLESVKFASHCLMNHPDLAKDLTEYLKVRSHDPEEAIRHDVIVTIITAAKRDLALVNDQLLGFVRERTLDKRWRVRKEAMMGLAQLYKKYCLHGEAGKEAAEKVSWIKDKLLHIYYQNSIDDKLLVEKIFAQYLVPHNLETEERMKCLYYLYASLDPNAVKALNEMWKCQNMLRSHVRELLDLHKQPTSEANCSAMFGKLMTIAKNLPDPGKAQDFVKKFNQVLGDDEKLRSQLELLISPTCSCKQADVCVREIARKLANPKQPTNPFLEMVKFLLERIAPVHIDSEAISALVKLMNKSIEGTADDEEEGVSPDTAIRSGLELLKVLSFTHPTSFHSAETYESLLQCLRMEDDKVAEAAIQIFRNTGHKIETDLPQIRSTLIPILHQKAKRGTPHQAKQAVHCIHAIFTNKEVQLAQIFEPLSRSLNADVPEQLITPLVSLGHISMLAPDQFASPMKSVVANFIVKDLLMNDRSTGEKNGKLWSPDEEVSPEVLAKVQAIKLLVRWLLGMKNNQSKSANSTLRLLSAMLVSEGDLTEQKRISKSDMSRLRLAAGSAIMKLAQEPCYHEIITPEQFQLCALVINDECYQVRQIFAQKLHKALVKLLLPLEYMAIFALCAKDPVKERRAHARQCLLKNISIRREYIKQNPMATEKLLSLLPEYVVPYMIHLLAHDPDFTRSQDVDQLRDIKECLWFMLEVLMTKNENNSHAFMKKMAENIKLTKDAQSPDESKMNEKLYTVCDVALCVINSKSALCNADSPKDPVLPMKFFTQPEKDFCNDKSYISEETRVLLLTGKPKPAGVLGAVNKPLSATGRKPYVRSTGAETGSNINVNSELNPSTGNRSREQSSEAVETGVSENEENPVRIISVTPVKNIDPVKNKEINSDQTTQGNISSDRGKKRSVAAAGTENIQQKTDEKVDESGPPAPSKPRRGRRPKSESQGNATKNDDINKPLGKGRKRAAVSQESPGGLEAGNAKAPKLQDVAKKAVPAERQIDLQR
modifications: mixed with Freund's incomplete adjuvant
malignant cases successfully diagnosed as malignant: 83.9%
